Results are given in words; binding and its absence hold for the method and conditions named. Some results given as binding are weak or reduced against the parent protein; the word gives no strength. Tags and fused reporters may be left off the sequences shown.
Assays:
[1] = biological target: TNFR2 (as used in the surface plasmon resonance assays) (UniProt P20333); assay: surface plasmon resonance (FIG. 28)
[2] = biological target: TNFR1 (as used in the surface plasmon resonance assays) (UniProt P19438); assay: surface plasmon resonance (FIG. 28)

Protein sequences, listed by entry. Tags and fused reporters are not part of them. Residues count along the entry.
UniProt P20333, residues 23-257: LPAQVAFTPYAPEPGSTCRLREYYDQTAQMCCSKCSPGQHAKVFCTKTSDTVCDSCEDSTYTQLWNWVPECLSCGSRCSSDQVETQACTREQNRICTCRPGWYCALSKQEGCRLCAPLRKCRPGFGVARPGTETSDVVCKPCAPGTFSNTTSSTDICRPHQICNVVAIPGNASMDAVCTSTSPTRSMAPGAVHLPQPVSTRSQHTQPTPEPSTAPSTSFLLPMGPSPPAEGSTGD
UniProt P19438, residues 30-211: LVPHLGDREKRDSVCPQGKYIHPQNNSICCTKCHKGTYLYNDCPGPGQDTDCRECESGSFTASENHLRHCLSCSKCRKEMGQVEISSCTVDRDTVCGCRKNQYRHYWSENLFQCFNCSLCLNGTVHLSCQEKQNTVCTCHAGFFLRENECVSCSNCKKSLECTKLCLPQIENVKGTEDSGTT

binding [1]: binds
binding [2]: binds
B1: Atsttrin (recombinant, released from GST-Atsttrin by factor Xa) (peptide)
chain: PQASCCEDRVHCCPHGAFCDLVHTRCITPTGTHPLAKKLPAQRTNRAVALSSSASSKENATTDLLTKLPAHTVGDVKCDMEVSCPDGYTCCRLQSGAWPWCEQGPHQVPWMEKAPAHLSLPDPQALKRDVPCDNVSSCPSSDTCCQLTSGEWGCCPIP

Reference: US20130157945A1
